At least one read-out could not be matched to a standard name with certainty. At least one compound was matched to its structure with a doubt left.
Test system: lung cancer cell line H358 having the KRAS G12S variant
Test: SynergyScreen combination efficacy (ATPlite 1Step cell viability)
Settings: difference between Synergy 1 and cell death rate of Ex. 1-2 alone
[1] = Ex. 1-2 log M -5.9, culture time 72 h

| SMILES | Synergy 2 (Ex. 1-2 log M -6.3, culture time 120 h) | Synergy 2 [1] |
| --- | --- | --- |
| Cc1sc2c(c1C)C(c1ccc(Cl)cc1)=N[C@@H](CC(=O)OC(C)(C)C)c1nnc(C)n1-2 [JQ1] | - |  |
| Nc1ncnc2c1c(-c1cccc(OCc3ccccc3)c1)cn2C1CC(CN2CCCC2)C1 (stereo not drawn) [NVP-ADW742] |  | - |
| CCOc1cc2ncc(C#N)c(Nc3ccc(OCc4ccccn4)c(Cl)c3)c2cc1NC(=O)/C=C/CN(C)C [Neratinib, neratinib] |  | ++ (less than 30% and more than 10%) |

Reference: patent publication EP4667464A1 (Cyrus Therapeutics Inc., priority 2023, dated 2024)
